# Source: the supplement of paper PMC8256030
# “And” between values parts separate entries of the source, which are not always exact repeats. Identical values can stand only once. Counter-ions that a name gives are not always drawn. This is one part of the list. This data set is noisy: repeats of one test often differ as much as different tests do.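 HEK293T cells were given each compound shortly before transfection with a reporter in which red mCherry is followed by the SARS-CoV-2 frameshift element and then GFP in the −1 frame, so GFP appears only after frameshifting.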
# Test system: HEK293T
# Assay: percent viability (nuclei count) relative to control; higher = more viable cells
# Conditions: 10 µM; 24 h
row,SMILES,percent viability
1,CC(=O)[C@@]1(O)CC[C@H]2[C@@H]3C=C(Cl)C4=CC(=O)[C@@H]5C[C@@H]5[C@]4(C)[C@H]3CC[C@@]21C,238%
2,O=C(O)Cc1nn(Cc2ccc(Br)cc2F)c(=O)c2ccccc12 [ponalrestat],171%
3,Cc1cc(=O)oc2cc(O)ccc12 [hymecromone],299%
4,CCCCOCCOC(=O)c1cccnc1 [nicoboxil],147%
5,C=C1c2cccc(O)c2C(O)=C2C(=O)[C@]3(O)C(O)=C(C(N)=O)C(=O)[C@@H](N(C)C)[C@@H]3[C@@H](O)[C@H]12 [Methacycline],24.9%
6,NNCCc1ccccc1 [phenelzine],184%
7,O=C1O[C@H]([C@@H](O)CO)C(O)=C1O [Vitamin C],25.9%
8,O=C(C[C@H](CSc1ccccc1)C(=O)O)c1ccc(-c2ccc(Cl)cc2)cc1 [tanomastat],326%
9,CCCCCC(C)NCc1c(C)cc(C)cc1C (stereo not given) [trimexiline],190%
10,CCCCC[C@H](O)/C=C/[C@@H]1[C@H]2C/C(=C/CCCC(=O)O)O[C@H]2C[C@H]1O [epoprostenol],154%
11,CC1(C)S[C@@H]2[C@H](N3C(=O)[C@@H](c4ccccc4)NC3(C)C)C(=O)N2[C@H]1C(=O)O,135%
12,CN(CCOc1ccc(CC2SC(=O)NC2=O)cc1)c1ccccn1 (stereo not given) [Rosiglitazone maleate],289%
13,CCOC(=O)[C@H](CCc1ccccc1)N[C@@H](C)C(=O)N1Cc2cc(OC)c(OC)cc2C[C@H]1C(=O)O [moexipril],58.6%
14,O=C1/C(=C/c2cccs2)CCC/C1=C\c1cccs1,252%
15,CCN(CC)C(C)CN1c2ccccc2Sc2ccccc21 (stereo not given) [profenamine],143%
16,C[n+]1ccccc1/C=N/O,450%
17,CNS(=O)(=O)Cc1ccc2[nH]cc(CCN(C)C)c2c1,195%
18,O=C(CCCCCCCC(=O)NCCO)NCCO [adelmidrol],28.2%
19,O=P(O)(O)C(O)(Cn1ccnc1)P(=O)(O)O [zoledronic acid],225%
20,CC(=O)OCC1=C(C(=O)O)N2C(=O)[C@@H](NC(=O)Cc3cccs3)[C@H]2SC1 [cefalotin],127%

row,SMILES,percent viability
1,O=C1c2cc(Cl)ccc2OC2CCON12 (stereo not given) [seclazone],270%
2,Clc1ccc2nsnc2c1NC1=NCCN1 [tizanidine],16.1%
3,CCCCCCCCCCCCCCCC(=O)OC/C=C(C)/C=C/C=C(C)/C=C/C1=C(C)CCCC1(C)C,265%
4,CC(=O)OCC(=O)[C@@]1(O)CC[C@H]2[C@@H]3CCC4=CC(=O)CC[C@]4(C)[C@H]3C(=O)C[C@@]21C [Cortisone acetate],281%
5,CC(=O)Oc1cccc(C)c1,83.8%
6,CCCc1cc(=O)[nH]c(=S)[nH]1,175%
7,CC(C)c1[nH]c2ccccc2c1C(=O)c1cccnc1 [nictindole],187%
8,Cc1ccc(O)c([C@H](CCN(C(C)C)C(C)C)c2ccccc2)c1 [tolterodine],235%
9,CCN(CC)C(=O)C1(c2ccccc2)CC1CN (stereo not given) [milnacipran],245%
10,CCCN(CCC)C(=O)C(Cc1ccc(OCCN(CC)CC)cc1)NC(=O)c1ccccc1 (stereo not given) [tiropramide],185%
11,CCN(CC)CCNC(=O)c1cc(Cl)c(N)cc1OC [metoclopramide],115% and 246%
12,CC(C)(C(=O)c1cccnc1)c1cccnc1 [metyrapone],207%
13,COc1ccc(-n2c(C)c[nH]c2=O)cc1 [metazamide],202%
14,CN1CCN(CC/C=C2/c3ccccc3Sc3ccc(S(=O)(=O)N(C)C)cc32)CC1,116%
15,O=CN(O)CCCP(=O)(O)O [fosmidomycin],96.8%
16,O=C(O)COCCN1CCN(C(c2ccccc2)c2ccc(Cl)cc2)CC1 (stereo not given) [cetirizine],130% and 235% and 298%
17,CC(=O)Nc1c(I)c(NC(C)=O)c(I)c(C(=O)O)c1I [sodium amidotrizoate],158%
18,Cc1cc(=O)n(-c2ccccc2)n1C [Phenazone],227%
19,O=c1[nH]cnc2c1ncn2[C@H]1CC[C@@H](CO)O1 [Didanosine],298%
20,Cc1ccc(F)cc1C(=O)Nc1ccc(C(=O)N2Cc3cccn3Cc3ccccc32)c(Cl)c1 [lixivaptan],184%
